The source of these data is PubChem BioAssay.

Values joined by “and” are separate entries in the source; they are usually repeats but may differ in a detail not shown here. Identical values can stand only once. The list shows a part of the results. Further columns of the screen follow, without active or inactive calls.

The test can be described thus: PubChem AID 1586. Conditions: yeast two-hybrid polyglutamine protein interaction, reporter readout; measured here: averaged growth delta OD.
The compound `CN(C)[C@@H]1C(=O)C(C(N)=O)=C(O)[C@@]2(O)C(=O)C3=C(O)c4c(O)ccc(Cl)c4[C@@](C)(O)[C@H]3C[C@@H]12` displayed a signal change (36 h minus 0 h) of 0.191.

`CN1C(=O)C(O)N=C(c2ccccc2)c2cc(Cl)ccc21` (stereo unspecified) had a signal change (36 h minus 0 h) of 0.289.

The compound `C/C=C(/C)C(=O)O[C@H]1CC[C@@]2(C)[C@@H]3CC[C@H]4[C@]5(O)C[C@H](O)[C@@]6(O)[C@@H](CN7C[C@@H](C)CC[C@H]7[C@@]6(C)O)[C@]5(O)C[C@@]42O[C@]13O` returned a signal change (36 h minus 0 h) of 0.121.

On to `CN1CC[C@]23c4c5ccc(O)c4O[C@H]2C(=O)CCC3[C@H]1C5` (stereo partly specified), for which the signal change (36 h minus 0 h) worked out at 0.468.

On to `O=[N+]([O-])c1cc([As](=O)(O)O)ccc1O`, for which the signal change (36 h minus 0 h) came to 0.198.

For `NC(N)=NOCC[C@H](N)C(=O)O`, the signal change (36 h minus 0 h) amounted to 0.135.

As for `CO[C@H]1[C@H](O)[C@@H](O[C@H]2CC[C@]3(C=O)C4CC[C@]5(C)[C@@H](C6=CC(=O)OC6)CC[C@]5(O)C4CC[C@@H]3C2)O[C@@H](C)[C@@H]1O` (stereo partly specified), the signal change (36 h minus 0 h) worked out at 0.117.

On to `CCC1(CC)C(=O)C=CNC1=O`, for which the signal change (36 h minus 0 h) is 0.153 and 0.234.

In turn, `CCC1(c2ccccc2)C(=O)NC(=O)NC1=O` registered a signal change (36 h minus 0 h) of 0.258.

In turn, `Nc1ccncc1` had a signal change (36 h minus 0 h) of 0.216.

`CN1C2CCC1C(C(=O)O)C(OC(=O)c1ccccc1)C2` (stereo unspecified) gave a signal change (36 h minus 0 h) of 0.219.

In turn, `CN1C2CC(OC(=O)[C@H](CO)c3ccccc3)C[C@H]1CC2O` (stereo partly specified) registered a signal change (36 h minus 0 h) of 0.136.

As for `CC(=O)OC1CN2CCC1CC2` (stereo unspecified), the signal change (36 h minus 0 h) was determined as 0.219.

For `c1ccc2nc(N3CCNCC3)ccc2c1`, the signal change (36 h minus 0 h) amounted to 0.205.

`NCC(O)c1ccc(O)cc1` (stereo unspecified) came in with a signal change (36 h minus 0 h) of 0.164.

With `NCC(CC(=O)O)c1ccc(Cl)cc1` (stereo unspecified), the signal change (36 h minus 0 h) stood at 0.15.

Consider `C[C@H]1O[C@@H](O[C@H]2[C@@H](O)C[C@H](O[C@H]3[C@@H](O)C[C@H](O[C@H]4CC[C@]5(C)C6CC[C@]7(C)[C@@H](C8=CC(=O)OC8)CC[C@]7(O)C6CC[C@@H]5C4)O[C@@H]3C)O[C@@H]2C)C[C@H](O)[C@@H]1O` (stereo partly specified), for which the signal change (36 h minus 0 h) is -0.0985.

In turn, `C=C(C)[C@H]1Cc2c(ccc3c2O[C@@H]2COc4cc(OC)c(OC)cc4[C@@H]2C3=O)O1` showed a signal change (36 h minus 0 h) of 0.26.

In turn, `CCNC(C)Cc1cccc(C(F)(F)F)c1` (stereo unspecified) gave a signal change (36 h minus 0 h) of 0.203.

The compound `N[C@@H](Cc1ccc(N(CCCl)CCCl)cc1)C(=O)O` had a signal change (36 h minus 0 h) of 0.0397.

The compound `CC(Cc1ccc(O)cc1)NCC(O)c1cc(O)cc(O)c1` (stereo unspecified) had a signal change (36 h minus 0 h) of 0.115.

Regarding `CO[C@H]1[C@H](O)[C@H](O[C@H]2CC[C@]3(C)C4CC[C@]5(C)C(C6=CC(=O)OC6)CC[C@]5(O)C4CC[C@@H]3C2)O[C@@H](C)[C@@H]1O` (stereo partly specified), the signal change (36 h minus 0 h) worked out at 0.078.

`NC(=O)c1cc([N+](=O)[O-])cc([N+](=O)[O-])c1` displayed a signal change (36 h minus 0 h) of 0.0975.

On to `CN1CCc2cc3c(cc2[C@H]1[C@@H]1OC(=O)c2c1ccc1c2OCO1)OCO3`, for which the signal change (36 h minus 0 h) was 0.0388.

`O=C1CCCN1CC#CCN1CCCC1` yielded a signal change (36 h minus 0 h) of 0.178.

On to `COc1ccc2c3c([nH]c2c1)C(C)=NCC3`, for which the signal change (36 h minus 0 h) was found to be 0.0301.

The compound `CC(C)(C)NCC(O)c1ccccc1Cl` (stereo unspecified) had a signal change (36 h minus 0 h) of 0.0781.

Take `C[C@]12CCC3C(CC[C@@H]4C[C@H](O)CC[C@]34C)C1CCC2=O` (stereo partly specified): the signal change (36 h minus 0 h) stood at 0.0926.

`[N-]=[N+]=CC(=O)OCC(N)C(=O)O` (stereo unspecified) displayed a signal change (36 h minus 0 h) of 0.0951.

Take `O=C1CC2OCC=C3CN4CC[C@]56c7ccccc7N1C5[C@H]2[C@H]3CC46` (stereo partly specified): the signal change (36 h minus 0 h) was 0.2.

Consider `CCCC(C)C1(CC)C(=O)NC(=O)NC1=O` (stereo unspecified), for which the signal change (36 h minus 0 h) was 0.459.

`Clc1ccc(COC(Cn2ccnc2)c2ccc(Cl)cc2Cl)c(Cl)c1` (stereo unspecified) displayed a signal change (36 h minus 0 h) of 0.00605.

Compound `CCC1(CCC(C)C)C(=O)NC(=O)NC1=O` yielded a signal change (36 h minus 0 h) of 0.328.

In the case of `COC(=O)C1=CCCN(C)C1`, the signal change (36 h minus 0 h) stood at 0.139.

With `CC[C@@H](CO)NC(=O)[C@@H]1C=C2c3cccc4[nH]cc(c34)C[C@H]2N(C)C1`, the signal change (36 h minus 0 h) was 0.133.

Turning to `CCOC(=O)C1(c2ccccc2)CCN(C)CC1`, the signal change (36 h minus 0 h) was 0.495.
